Some of the results follow. These are raw signals, not scaled to a control.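 First-pass screen: polymyxin B was added at a level that permeabilizes the Salmonella outer membrane while sparing the inner membrane. DMSO wells, with and without polymyxin B, defined maximum growth. Because plates differed from one another, each plate's data were ranked separately and the compounds with the lowest OD600 were carried forward as hits.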
Tested on: Salmonella enterica serovar Typhimurium SL1344
Assay: bacterial growth OD600 after 18 h with compound and polymyxin B; higher = more bacterial growth (less inhibition)
Details: 50 µM, Mueller-Hinton broth

Row | Structure (SMILES) | bacterial growth OD600 (polymyxin B 0.75 µg/mL) | bacterial growth OD600 (polymyxin B 1 µg/mL)
1 | COc1cc(CC2(CCC(=O)N3CCC(Oc4cccc(Cl)c4)CC3)CCC(=O)N2)ccc1F (stereo not drawn) | 0.002 | –
2 | O=C(c1ccco1)N1CCC(C2CCN(Cc3cccnc3)CC2)C1 (stereo not drawn) | 0.973 | –
3 | Cc1cccc2nc(C(=O)N(C)C3CCCN(CCc4ccccc4)C3)cn12 (stereo not drawn) | – | 0.83
4 | COC(=O)C1CCCCN1Cc1nc(-c2ccc(OC)c(C)c2)oc1C (stereo not drawn) | – | 0.835
5 | COc1ccccc1OCC(=O)NC1CCCc2c1cnn2-c1cccc(C)c1C (stereo not drawn) | – | 0.702
6 | COc1cccc(CN2CCCC3(CCN(C(=O)CCC(C)C)C3)C2=O)c1OC (stereo not drawn) | – | 0.76
7 | COc1ccc(CN2CCC(OC)CC2)cc1OCC(O)CN1CCCCC1 (stereo not drawn) | – | 1.08
8 | O=C(CN1CCCCC1)NC1CCCc2c1cnn2-c1cc(F)cc(F)c1 (stereo not drawn) | – | 0.987

Exported in CSV form: 2 of the compounds above
Row,Structure (SMILES),bacterial growth OD600 (polymyxin B 0.75 µg/mL),bacterial growth OD600 (polymyxin B 1 µg/mL)
2,O=C(c1ccco1)N1CCC(C2CCN(Cc3cccnc3)CC2)C1 (stereo not drawn),0.973,–
6,COc1cccc(CN2CCCC3(CCN(C(=O)CCC(C)C)C3)C2=O)c1OC (stereo not drawn),–,0.76

Source: the supplement of paper PMC12889115
